Test results as given in PubChem BioAssay AID540256 (National Center for Advancing Translational Sciences (NCATS), 2011).
In all, about 300,000 compounds went through this assay and about 3,700 (1.2%) were called active. This list was built around the results that the source calls inconclusive (neither active nor inactive); the mix of calls is not that of the screen. Calls come from the whole dose curve; tested in HEK293 cells. Potencies of inconclusive entries are doubtful fits and often do not repeat.

Experiment: qHTS for Inhibitors of binding or entry into cells for Lassa Virus; note: nearly all actives have a fitted effect of over 50% in size
Settings: Lassa virus pseudotype entry inhibition, cell reporter; series mostly up to 37.9 µM
Potency is the fitted concentration of half-maximal effect.

| SMILES | Potency |
| --- | --- |
| Cc1onc(-c2c(Cl)cccc2Cl)c1/C(N)=N/OC(=O)C(C)(C)C | inconclusive: 5.62 µM [inhibitor, single point] |
| CCOc1cc(S(=O)(=O)NCCc2cccc(C)c2)c(OCC)cc1-n1cnnn1 | inconclusive: 29.1 µM [inhibitor, single point] |
| CCCCOC(=O)c1ccc(NC(=O)c2cc(-c3ccccc3)on2)cc1 | inactive |
| CC(=O)c1ccc(C(=O)N(CCCN(C)C)c2nc3c(C)c(C)ccc3s2)cc1 | inconclusive: 3.55 µM [activator, full curve] |
| COc1cccc(C2=CC(c3ccc(OC)c(OC)c3OC)n3nnnc3N2)c1 (centres undefined) | inactive |
| O=C(CCc1ccc(S(=O)(=O)NC2CCCCC2)cc1)NCc1ccccc1 | inconclusive: 35.5 µM [inhibitor, single point] |
| CCOc1ccc(NS(=O)(=O)c2ccc(NS(=O)(=O)c3cccs3)cc2)cc1 | inactive |
| O=c1[nH]nc(Cc2ccc(-c3ccc(Cl)cc3)o2)c2ccccc12 | inconclusive: 29.1 µM [inhibitor, single point] |
| Cc1ccc(OCCn2c(CNc3cccc(C)c3)nc3ccccc32)cc1 | inactive |
| O=C(c1ccc(Cl)cc1)c1cnc(-c2ccc(Cl)cc2)s1 | inconclusive: 20.6 µM [activator, partial curve, poor fit] |
| COc1ccc(N2CCN(C(=O)COC(=O)c3ccc(C)o3)CC2)cc1 | inconclusive: 1.26 µM [activator, single point] |
| O=C(NCC1(N2CCOCC2)CCCCC1)c1cccc(S(=O)(=O)N2CCc3ccccc3C2)c1 | inconclusive: 25.1 µM [inhibitor, single point] |
| Cc1ccc(C)c(N2CCN(C(=O)c3ccc(CS(=O)Cc4cccc(Cl)c4)o3)CC2)c1 (centres undefined) | inconclusive: 35.5 µM [inhibitor, single point] |
| CC1(C)CC(=O)/C(=C\c2cccc([N+](=O)[O-])c2)C(C)(C)N1 | inconclusive: 1.64 µM [inhibitor, full curve, poor fit] |
| O=C(NC1C(=O)NNC1c1ccccc1)c1ccccc1 (centres undefined) | inconclusive: 0.1 µM [activator, full curve, poor fit] |
| Cn1ccc2c(N3c4ccccc4CCc4ccccc43)cc3c(c21)C1CCC3C1 (centres undefined) | inactive |
| COc1ccc(-c2ccc(C(=O)O)c(=O)[nH]2)cc1 | inconclusive: 11.2 µM [activator, partial curve, poor fit] |
| Cc1ccc(NC(=O)c2sc(-n3nc(C)c(CCC(C)C)c3C)nc2C)cc1C | inactive |
| COc1cc(C=O)ccc1OCCSc1ccc(C)cc1 | inconclusive: 6.51 µM [activator, single point] |
| Cc1nc2ccn(Cc3cccs3)c(=O)c2cc1C(=O)N1CCN(c2ccc(F)cc2)CC1 | inconclusive: 3.98 µM [activator, partial curve, poor fit] |
| Cc1cnc(C(=O)Nc2ccccc2-c2ccc(C)o2)cn1 | inconclusive: 35.5 µM [activator, single point] |
| Cc1nn2c([nH]c(=O)c3ccccc32)c1C=O | inconclusive: 16.4 µM [activator, single point] |
| Cc1ccc(/C=C(\C#N)C(=O)Nc2ccccn2)o1 | inconclusive: 11.2 µM [inhibitor, partial curve, poor fit] |

| SMILES | Potency |
| --- | --- |
| COc1nccnc1NS(=O)(=O)c1ccc(NCc2cc(Br)ccc2O)cc1 | inconclusive: 10 µM [activator, partial curve] |
| O=C(Nc1ccc(F)c(Cl)c1)N(Cc1ccc2c(c1)OCO2)C1CCN(Cc2ccccc2)CC1 | inconclusive: 20 µM [inhibitor, single point] |
| COC(=O)c1sc(N)c(C(=O)OC)c1COC(=O)CCNS(=O)(=O)c1ccc(C)cc1 | inconclusive: 2.24 µM [inhibitor, full curve, poor fit] |
| COc1c(Cl)cccc1-c1cn2ccccc2n1 | inconclusive: 35.5 µM [inhibitor, single point] |
| COc1ccc(OC)c(NC(=O)/C=C/c2ccc(S(=O)(=O)N3CCOCC3)cc2)c1 | inactive |
| COc1ccccc1-n1cc(-c2ccc(C)cc2)[nH]c1=S | inconclusive: 5.01 µM [inhibitor, full curve, poor fit] |
| COc1ccc(C(=NN)c2ccc(OC)cc2)cc1 | inconclusive: 35.5 µM [inhibitor, single point] |
| CC(=O)c1c(C)nc2ccccc2c1N | inconclusive: 8.91 µM [activator, partial curve, poor fit] |
| [O-]/C(=C(\C(=S)NCc1ccco1)[n+]1ccccc1)c1ccccc1Br | inactive |
| Cc1cccc(N(C(=O)c2snc(C(N)=O)c2N)C(C(=O)NCC2CCCO2)c2ccc(N(C)C)cc2)c1C (centres undefined) | inconclusive: 10 µM [inhibitor, partial curve, poor fit] |
| CC(/C=C/c1ccccc1)=N/NC(=O)c1cccc(Br)c1 | inconclusive: 22.4 µM [inhibitor, single point] |
| C=CCc1ccccc1OCCCCN1CCCC1 | inconclusive: 7.94 µM [inhibitor, partial curve, poor fit] |
| COc1ccc(NC(=O)NCCc2cccc(Cl)c2)cc1OC | inactive |
| CC1CC(C(F)(F)F)n2ncc(C(=O)O)c2N1 (centres undefined) | inactive |
| Cc1cccc(C)c1NC(=O)C(NC(=O)CN1C(=O)c2ccccc2C1=O)c1ccccc1 (centres undefined) | inconclusive: 0.251 µM [inhibitor, single point] |
| O=C(COC(=O)C1CCC1)NCc1ccc(F)cc1 | inactive |
| Cc1cccc(C)c1NC(=O)CN1C(=O)C(C)Oc2ccccc21 (centres undefined) | inconclusive: 2.82 µM [inhibitor, partial curve, poor fit] |
| COc1ccccc1N1CCN(C(=O)c2sc3ncnc(N4CCN(c5ccccn5)CC4)c3c2C)CC1 | inconclusive: 11.2 µM [inhibitor, partial curve, poor fit] |
| CN(C)c1ccc(/C=C/c2ccc3ccccc3[n+]2C)cc1 | inconclusive: 6.31 µM [inhibitor, partial curve] |
| COc1cccc(NC(=O)Cn2c3ccc(F)cc3c3nc4n(c(=O)c32)CCS4)c1 | inconclusive: 25.1 µM [inhibitor, single point] |
| Cc1cccc(C(=O)N=c2c(C#N)cc3c(=O)n4cccc(C)c4nc3n2Cc2ccco2)c1 | inactive |
| CCOc1ccc2nc(NC(=O)c3cccn(Cc4ccc(C)cc4)c3=O)sc2c1 | inconclusive: 0.562 µM [inhibitor, full curve, poor fit] |
| CCCCNC(=O)c1cccc2c(=O)c(C)c(-c3ccccc3)oc12 | inconclusive: 7.94 µM [inhibitor, partial curve, poor fit] |

| SMILES | Potency |
| --- | --- |
| COc1ccc2[nH]c(C)c(CCNc3ccc(C(F)(F)F)cc3[N+](=O)[O-])c2c1 | inactive |
| O=C(CSc1ncnc2sc3c(c12)CCC3)N1CCOCC1 | inactive |
| O=C1c2cccc3c(N4CCCCC4)ccc(c23)C(=O)N1c1ccc(O)cc1 | inactive |
| O=C(Nc1ccc2oc(-c3ccccc3F)nc2c1)c1ccccc1Cl | inactive |
| CC(C)N1CCOC1c1ccccc1 (centres undefined) | inactive |
| O=C(NC1CCCCCC1)c1ccc(N2CCCC2=O)cc1 | inactive |
| CN(C(=O)CC(NC(=O)c1ccccc1)(c1ccccc1)c1ccccc1)c1ccccc1 | inconclusive: 2.24 µM [inhibitor, full curve, poor fit] |
| N#Cc1ccc(C(=O)Nc2ccc(N3CCN(C(=O)c4ccco4)CC3)cc2)c(F)c1 | inactive |
| COc1ccc(NC(=O)CC2C(=O)N(c3ccc(Cl)cc3)C(=S)N2CCc2ccccn2)cc1 (centres undefined) | inconclusive: 35.5 µM [inhibitor, single point] |
| Cc1cccn2cc(-c3ccc(F)cc3)nc12 | inconclusive: 7.3 µM [inhibitor, partial curve, poor fit] |
| CC(C)OP(=O)(OC(C)C)C(O)c1ccc(N(C)C)cc1 (centres undefined) | inactive |
| Cc1c(C(=O)N2CCCCC2C)sc2ncnc(N3CCc4ccccc4C3)c12 (centres undefined) | inconclusive: 14.1 µM [inhibitor, partial curve, poor fit] |
| COc1cc(NC(=O)CCc2c(C)nn(-c3ccc4nncn4n3)c2C)cc(OC)c1OC | inactive |
| COc1ccc(/C=C/C(=O)c2ccc(NC(=O)c3cccs3)cc2)cc1OC | inconclusive: 25.9 µM [inhibitor, single point] |
| Cc1noc(C)c1COc1ccccc1C(=O)N(C)CC(=O)Nc1ccc(Cl)c(Cl)c1 | inconclusive: 35.5 µM [inhibitor, single point] |
| COc1ccccc1CN1CCCC(CN(CCN(C)C)C(=O)C2CCCC2)C1 (centres undefined) | inconclusive: 25.1 µM [inhibitor, single point] |
| CC1=C(C(=O)Nc2ccccc2C(=O)NCc2ccccc2)SCCO1 | inactive |
| COc1ccc(C)cc1NC(=O)Nc1cccc(C(=O)O)c1 | inconclusive: 35.5 µM [activator, single point] |
| Cc1ccc(NC(=O)CN(C)C(=O)CSc2nnc(NC(C)C)s2)cc1 | inactive |
| COc1cccc(OC)c1OCCCCN1CCC(Cc2ccccc2)CC1 | inconclusive: 35.5 µM [inhibitor, partial curve, poor fit] |
| COc1cccc(-n2nc(C#N)c(Cl)cc2=O)c1 | inconclusive: 35.5 µM [inhibitor, single point] |
| Nc1ccccc1C(=O)/C=C/c1ccc2c(c1)OCO2 | inconclusive: 1.64 µM [activator, partial curve, poor fit] |
| O=C(Nc1ccc2nc(SCC(=O)N3CCCc4ccccc43)sc2c1)c1cccc(F)c1 | inconclusive: 35.5 µM [inhibitor, single point] |

4 records picked at random from the list so far:

| SMILES | Potency |
| --- | --- |
| O=C(NC1CCCCCC1)c1ccc(N2CCCC2=O)cc1 | inactive |
| O=C(Nc1ccc2nc(SCC(=O)N3CCCc4ccccc43)sc2c1)c1cccc(F)c1 | inconclusive: 35.5 µM [inhibitor, single point] |
| Cc1c(C(=O)N2CCCCC2C)sc2ncnc(N3CCc4ccccc4C3)c12 (centres undefined) | inconclusive: 14.1 µM [inhibitor, partial curve, poor fit] |
| Nc1ccccc1C(=O)/C=C/c1ccc2c(c1)OCO2 | inconclusive: 1.64 µM [activator, partial curve, poor fit] |
